Experimental data: PMC4038590 (PLoS ONE, 2014)
No constants are given. Whether binding was seen depends on the method and setting. Some binding calls cover weakened binding; strength is not graded here.

Amino acid sequences for entries named in this document (tags omitted). Residues count along the entry.
UniProt P06492, residues 427-485: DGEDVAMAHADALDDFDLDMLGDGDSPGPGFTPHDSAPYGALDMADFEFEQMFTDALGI

Molecular target: GST-VP16-TAD (Herpes simplex virus VP16 transcription activation domain, both subdomains, residues 427-485) (Herpes simplex virus type 1) (UniProt P06492)
Test: pull-down; both purified

B1: Arabidopsis thaliana Med25 ACtivator Interaction Domain (aMed25-ACID), Med25_(551-680) (domain or fragment, UniProt Q7XYY2 551-680, looked up)
chain: TSQSKYVKVWEGNLSGQRQGQPVLITRLEGYRSASASDSLAANWPPTMQIVRLISQDHMNNKQYVGKADFLVFRAMSQHGFLGQLQDKKLCAVIQLPSQTLLLSVSDKACRLIGMLFPGDMVVFKPQIPN
notes: source: 15N-labelled in M9 medium for NMR
  binding: binds
